This data set deals with healthy male volunteers. The data set is described as follows: Taste and aftertaste of nebulized liquid aerosol (Aeroneb GO). The arrangement: species or system human. Particulars: for Aftertaste: 5 minutes after the inhalation maneuver; for Taste: about 40 μl of test solution inhaled as aerosol, 2 volunteers.

Take `COc1ccc([C@@H]2Sc3ccccc3N(CCN(C)C)C(=O)[C@@H]2OC(C)=O)cc1` [diltiazem]: the Aftertaste entry is listed as “none to little aftertaste” and the Taste entry is on record as “Mildly bitter taste felt in the back of the tongue”.

Take `O=C(NCC1CCCCN1)c1cc(OCC(F)(F)F)ccc1OCC(F)(F)F` (stereo not shown) [flecainide]: the Aftertaste result is given as “none to little aftertaste” and the Taste entry is on record as “Mildly bitter taste felt in the back of the tongue”.

(Values after patent US20230092389A1, “UNIT DOSES, AEROSOLS, KITS, AND METHODS FOR TREATING HEART CONDITIONS BY PULMONARY ADMINISTRATION” (InCarda Therapeutics, Inc., priority 2017, published 2023).)
